Data as given in PubChem BioAssay AID1159578 (Peter MacCallum Cancer Centre, 2015)

Screen: 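Genome-wide hunt for genes controlling movement of lymphatic endothelial cells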 (primary screen)
Cell system: human lymphatic endothelial cells
Knock-down reagent: siRNA pool against human genes, 40 nM
Duration: 48 h after transfection
Measurement: 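High-content imaging of dye-stained cells in a scratch assay measures filled wound area and nuclei per well; duplicate means given as ratio to mock and robust z-score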
Direction: migration robust z-score: higher = faster migration into the scratch; nuclei per well: higher = more cells in the well
Call rule: 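Pools averaging fewer than 3300 nuclei are never called; remaining pools count as changed when migration robust z lies outside -2 to 2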
Calls: active = migration changed; inactive = no migration change, or too few cells
In all, the deposit lists about 18,000 reagents; below is a random part of them. In the full data, about 1,030 (5.7%) are marked active. 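Inactive calls also include pools with fewer than 3300 nuclei, whose migration was not assessed.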 Raw values vary from plate to plate and are shown uncorrected. Not all columns of the deposit are shown.

CDKN2C (cyclin dependent kinase inhibitor 2C) scored migration robust z-score -0.6; migration class with cell-count check migration z between -2 and 2; enough cells; nuclei per well, duplicate mean 5223; inactive.
Depletion of ADGRB3 (adhesion G protein-coupled receptor B3) came out at: migration robust z-score -0.24; migration class with cell-count check migration z between -2 and 2; enough cells; nuclei per well, duplicate mean 4893; inactive.
Silencing of ATP9B (ATPase phospholipid transporting 9B) resulted in: migration robust z-score 1.38; migration class with cell-count check migration z between -2 and 2; enough cells; nuclei per well, duplicate mean 5874; inactive.
For DIPK1B (divergent protein kinase domain 1B) the deposit lists migration robust z-score 1.14; migration class with cell-count check migration z between -2 and 2; enough cells; nuclei per well, duplicate mean 6716; inactive.

2 entries from above, reduced to “nuclei per well, duplicate mean”.
CDKN2C (cyclin dependent kinase inhibitor 2C) = 5223
ADGRB3 (adhesion G protein-coupled receptor B3) = 4893

Next reagents follow:
With knock-down of CRX (cone-rod homeobox), the record shows migration robust z-score 0.39; migration class with cell-count check migration z between -2 and 2; enough cells; nuclei per well, duplicate mean 4765; inactive.
Knock-down of NRROS (negative regulator of reactive oxygen species) came out at: migration robust z-score -0.02; migration class with cell-count check migration z between -2 and 2; enough cells; nuclei per well, duplicate mean 5722; inactive.
With knock-down of ODF2 (outer dense fiber of sperm tails 2), the screen gave migration robust z-score -1.09; migration class with cell-count check migration z between -2 and 2; enough cells; nuclei per well, duplicate mean 5578; inactive.
PLPP5 (phospholipid phosphatase 5) gave migration robust z-score 0.78; migration class with cell-count check migration z between -2 and 2; enough cells; nuclei per well, duplicate mean 7248; inactive.
ZNF704 (zinc finger protein 704) showed migration robust z-score 1.82; migration class with cell-count check migration z between -2 and 2; enough cells; nuclei per well, duplicate mean 6334; inactive.
BCKDHB (branched chain keto acid dehydrogenase E1 subunit beta) showed migration robust z-score 0.2; migration class with cell-count check migration z between -2 and 2; enough cells; nuclei per well, duplicate mean 5844; inactive.
NANOG (Nanog homeobox) gave migration robust z-score -0.31; migration class with cell-count check migration z between -2 and 2; enough cells; nuclei per well, duplicate mean 5257; inactive.
Knock-down of PDCD10 (programmed cell death 10) resulted in: migration robust z-score -0.44; migration class with cell-count check migration z between -2 and 2; enough cells; nuclei per well, duplicate mean 5052; inactive.
